In PMC8789201:
No constants are given. Whether binding was seen depends on the method and setting. In cells and extracts the contact can be indirect. These calls come from enrichment with a bait or labelling near it, and not all partners need be listed. For part of these data: No binding means not detected with the bait. For part of these data: Sequences can lack the tags named with a protein. Values belong to the molecule of their own block, whether it stands above or below them.

Protein sequences, listed by entry. Tags and fused reporters are not part of them.
UniProt P63104: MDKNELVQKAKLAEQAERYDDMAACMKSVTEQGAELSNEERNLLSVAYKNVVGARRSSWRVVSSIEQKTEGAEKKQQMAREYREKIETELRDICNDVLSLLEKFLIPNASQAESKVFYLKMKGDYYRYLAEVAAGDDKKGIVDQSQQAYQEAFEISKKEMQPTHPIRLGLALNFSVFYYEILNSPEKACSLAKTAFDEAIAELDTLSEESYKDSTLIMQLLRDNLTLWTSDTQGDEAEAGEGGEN
UniProt P62993: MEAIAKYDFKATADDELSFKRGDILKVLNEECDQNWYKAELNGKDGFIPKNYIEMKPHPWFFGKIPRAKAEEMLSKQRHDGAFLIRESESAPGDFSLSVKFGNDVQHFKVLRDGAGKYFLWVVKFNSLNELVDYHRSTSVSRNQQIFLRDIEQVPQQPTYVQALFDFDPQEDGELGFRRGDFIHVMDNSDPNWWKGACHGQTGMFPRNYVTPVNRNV
UniProt O75791: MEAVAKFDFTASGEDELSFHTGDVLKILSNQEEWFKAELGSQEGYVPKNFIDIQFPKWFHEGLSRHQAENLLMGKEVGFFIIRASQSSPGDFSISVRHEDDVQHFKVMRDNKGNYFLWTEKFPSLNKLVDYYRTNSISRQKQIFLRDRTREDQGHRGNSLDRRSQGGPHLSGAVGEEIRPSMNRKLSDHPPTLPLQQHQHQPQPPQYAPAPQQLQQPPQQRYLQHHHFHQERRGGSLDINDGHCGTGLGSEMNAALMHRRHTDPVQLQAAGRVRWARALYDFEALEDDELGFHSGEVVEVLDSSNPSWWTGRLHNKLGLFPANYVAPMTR

Assays:
[1] = molecular target: T1, OST-tagged SLP76 (SLP-76^OST) (human) (UniProt Q13094); test: affinity purification with mass spectrometry; OST-tagged bait in n-dodecyl-β-D-maltoside lysates of expanded primary human CD8+ T cells, unstimulated or stimulated with anti-CD3 plus anti-CD28 for 30, 60, 120 and 300 s; captured on Strep-Tactin Sepharose, eluted with D-biotin, LC-MS/MS; compared with control cells
T1 sequence: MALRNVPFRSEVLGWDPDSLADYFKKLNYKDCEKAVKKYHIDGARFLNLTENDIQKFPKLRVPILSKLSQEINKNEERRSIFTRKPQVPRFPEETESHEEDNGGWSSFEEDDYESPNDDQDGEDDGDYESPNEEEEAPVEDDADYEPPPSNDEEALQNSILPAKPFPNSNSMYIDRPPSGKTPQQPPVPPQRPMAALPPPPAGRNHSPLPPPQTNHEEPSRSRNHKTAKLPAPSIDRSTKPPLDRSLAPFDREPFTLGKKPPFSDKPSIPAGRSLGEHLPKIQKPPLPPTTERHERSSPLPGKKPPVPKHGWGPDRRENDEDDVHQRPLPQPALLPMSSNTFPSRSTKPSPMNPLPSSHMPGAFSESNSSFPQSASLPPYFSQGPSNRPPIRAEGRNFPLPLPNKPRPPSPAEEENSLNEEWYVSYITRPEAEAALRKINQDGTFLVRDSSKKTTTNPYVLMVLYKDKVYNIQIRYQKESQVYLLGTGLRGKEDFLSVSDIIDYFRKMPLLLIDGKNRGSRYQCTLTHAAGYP

[2] = molecular target: T1, OST-tagged SLP76 (SLP-76^OST) (human); test: affinity purification with mass spectrometry; OST-tagged bait in n-dodecyl-β-D-maltoside lysates of expanded primary human CD4+ T cells, unstimulated or stimulated with anti-CD3 plus anti-CD28 for 30, 60, 120 and 300 s; captured on Strep-Tactin Sepharose 1.5 h at 4°C, eluted with 2.5 mM D-biotin, LC-MS/MS; compared with mock-edited control cells
[3] = molecular target: T1, OST-tagged SLP76 (SLP-76^OST) (human); test: affinity purification with mass spectrometry; SLP-76^OST CD4+ T cells preincubated 45 min at 37°C with dasatinib (100 nM), kept until lysis; stimulated with anti-CD3 plus anti-CD28; Strep-Tactin purification, LC-MS/MS; vehicle (DMSO) in parallel
VAV1^OST (human) = molecular target: T2, VAV1^OST (human) (UniProt P15498); test: affinity purification with mass spectrometry; OST-tagged bait in n-dodecyl-β-D-maltoside lysates of expanded primary human CD4+ T cells, unstimulated or stimulated with anti-CD3 plus anti-CD28 for 30, 60, 120 and 300 s; captured on Strep-Tactin Sepharose 1.5 h at 4°C, eluted with 2.5 mM D-biotin, LC-MS/MS; compared with mock-edited control cells
T2 sequence: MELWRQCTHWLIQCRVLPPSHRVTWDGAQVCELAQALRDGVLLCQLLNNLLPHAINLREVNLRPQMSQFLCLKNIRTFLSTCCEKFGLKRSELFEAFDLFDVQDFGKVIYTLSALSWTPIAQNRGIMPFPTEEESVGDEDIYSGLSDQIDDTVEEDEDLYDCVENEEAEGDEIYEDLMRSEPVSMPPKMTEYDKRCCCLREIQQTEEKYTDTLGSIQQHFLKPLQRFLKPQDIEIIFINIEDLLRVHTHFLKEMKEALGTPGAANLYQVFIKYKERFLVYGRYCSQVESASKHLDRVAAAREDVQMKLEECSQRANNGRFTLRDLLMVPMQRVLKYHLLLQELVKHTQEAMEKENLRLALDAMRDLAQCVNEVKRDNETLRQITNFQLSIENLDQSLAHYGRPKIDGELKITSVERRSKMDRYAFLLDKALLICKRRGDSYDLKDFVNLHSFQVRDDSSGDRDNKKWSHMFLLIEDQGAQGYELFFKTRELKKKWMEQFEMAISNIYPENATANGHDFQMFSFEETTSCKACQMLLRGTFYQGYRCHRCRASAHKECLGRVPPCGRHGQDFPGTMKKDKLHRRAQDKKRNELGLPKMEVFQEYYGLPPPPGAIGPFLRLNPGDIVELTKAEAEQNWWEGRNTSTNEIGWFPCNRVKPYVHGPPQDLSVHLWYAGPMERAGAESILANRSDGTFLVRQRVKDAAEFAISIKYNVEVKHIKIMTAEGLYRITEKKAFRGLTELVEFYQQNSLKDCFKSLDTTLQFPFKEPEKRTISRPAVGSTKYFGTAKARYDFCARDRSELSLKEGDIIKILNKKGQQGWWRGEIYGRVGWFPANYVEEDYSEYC

Molecule: 14-3-3 ζ (from UniProt P63104 1-245)
binding [1]: binds | binding [2]: binds | binding [3]: no binding (only with dasatinib (100 nM))

Molecule: GRB2 cytosolic adaptor (from UniProt P62993 1-217)
binding (VAV1^OST (human)): binds

B1: transmembrane receptor CD6 (receptor, UniProt P30203 18-668)
chain: HPSPAPPDQLNTSSAESELWEPGERLPVRLTNGSSSCSGTVEVRLEASWEPACGALWDSRAAEAVCRALGCGGAEAASQLAPPTPELPPPPAAGNTSVAANATLAGAPALLCSGAEWRLCEVVEHACRSDGRRARVTCAENRALRLVDGGGACAGRVEMLEHGEWGSVCDDTWDLEDAHVVCRQLGCGWAVQALPGLHFTPGRGPIHRDQVNCSGAEAYLWDCPGLPGQHYCGHKEDAGAVCSEHQSWRLTGGADRCEGQVEVHFRGVWNTVCDSEWYPSEAKVLCQSLGCGTAVERPKGLPHSLSGRMYYSCNGEELTLSNCSWRFNNSNLCSQSLAARVLCSASRSLHNLSTPEVPASVQTVTIESSVTVKIENKESRELMLLIPSIVLGILLLGSLIFIAFILLRIKGKYALPVMVNHQHLPTTIPAGSNSYQPVPITIPKEVFMLPIQVQAPPPEDSDSGSDSDYEHYDFSAQPPVALTTFYNSQRHRVTDEEVQQSRFQMPPLEEGLEELHASHIPTANPGHCITDPPSLGPQYHPRSNSESSTSSGEDYCNSPKSKLPPWNPQVFSSERSSFLEQPPNLELAGTQPAFSAGPPADDSSSTSSGEWYQNFQPPPQPPSEEQFGCPGSPSPQPDSTDNDDYDDISAA
binding [1]: binds | binding [2]: binds | binding [3]: no binding (only with dasatinib (100 nM))

B2: VAV1, endogenous (protein, UniProt P15498 1-845)
chain: T2 sequence
binding [1]: binds | binding [2]: binds | binding [3]: no binding (only with dasatinib (100 nM))

More lines, now with the values ahead:

binding (VAV1^OST (human)): binds
Molecule: GRAP2 cytosolic adaptor (from UniProt O75791 1-330)

binding (VAV1^OST (human)): binds
B3: SLP-76, endogenous (protein, UniProt Q13094 1-533)
chain: T1 sequence
